Laboratory results from paper PMC8233286.
No constants are given. Whether binding was seen depends on the method and setting. In cells and extracts the contact can be indirect. These calls come from enrichment with a bait or labelling near it, and not all partners need be listed. For part of these data: A no says only that the protein was not detected with the bait. For part of these data: Where a sequence is shown, tags or fusion partners need not be part of it.

Sequences of proteins named here, by UniProt entry; tags and fusion partners are left off. Residues count along the entry.
UniProt P31946: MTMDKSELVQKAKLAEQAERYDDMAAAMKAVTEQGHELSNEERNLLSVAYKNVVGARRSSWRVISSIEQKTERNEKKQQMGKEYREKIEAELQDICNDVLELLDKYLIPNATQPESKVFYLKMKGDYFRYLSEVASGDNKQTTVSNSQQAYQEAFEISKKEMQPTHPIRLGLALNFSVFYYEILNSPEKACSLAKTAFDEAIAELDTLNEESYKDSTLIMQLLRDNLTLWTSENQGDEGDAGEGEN
UniProt O75396: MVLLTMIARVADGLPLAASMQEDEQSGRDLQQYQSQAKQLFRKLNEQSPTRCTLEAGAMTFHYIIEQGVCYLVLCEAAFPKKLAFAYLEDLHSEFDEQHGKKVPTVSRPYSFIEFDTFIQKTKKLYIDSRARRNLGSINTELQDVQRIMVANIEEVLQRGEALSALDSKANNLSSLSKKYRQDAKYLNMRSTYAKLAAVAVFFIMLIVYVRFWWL
UniProt P53621: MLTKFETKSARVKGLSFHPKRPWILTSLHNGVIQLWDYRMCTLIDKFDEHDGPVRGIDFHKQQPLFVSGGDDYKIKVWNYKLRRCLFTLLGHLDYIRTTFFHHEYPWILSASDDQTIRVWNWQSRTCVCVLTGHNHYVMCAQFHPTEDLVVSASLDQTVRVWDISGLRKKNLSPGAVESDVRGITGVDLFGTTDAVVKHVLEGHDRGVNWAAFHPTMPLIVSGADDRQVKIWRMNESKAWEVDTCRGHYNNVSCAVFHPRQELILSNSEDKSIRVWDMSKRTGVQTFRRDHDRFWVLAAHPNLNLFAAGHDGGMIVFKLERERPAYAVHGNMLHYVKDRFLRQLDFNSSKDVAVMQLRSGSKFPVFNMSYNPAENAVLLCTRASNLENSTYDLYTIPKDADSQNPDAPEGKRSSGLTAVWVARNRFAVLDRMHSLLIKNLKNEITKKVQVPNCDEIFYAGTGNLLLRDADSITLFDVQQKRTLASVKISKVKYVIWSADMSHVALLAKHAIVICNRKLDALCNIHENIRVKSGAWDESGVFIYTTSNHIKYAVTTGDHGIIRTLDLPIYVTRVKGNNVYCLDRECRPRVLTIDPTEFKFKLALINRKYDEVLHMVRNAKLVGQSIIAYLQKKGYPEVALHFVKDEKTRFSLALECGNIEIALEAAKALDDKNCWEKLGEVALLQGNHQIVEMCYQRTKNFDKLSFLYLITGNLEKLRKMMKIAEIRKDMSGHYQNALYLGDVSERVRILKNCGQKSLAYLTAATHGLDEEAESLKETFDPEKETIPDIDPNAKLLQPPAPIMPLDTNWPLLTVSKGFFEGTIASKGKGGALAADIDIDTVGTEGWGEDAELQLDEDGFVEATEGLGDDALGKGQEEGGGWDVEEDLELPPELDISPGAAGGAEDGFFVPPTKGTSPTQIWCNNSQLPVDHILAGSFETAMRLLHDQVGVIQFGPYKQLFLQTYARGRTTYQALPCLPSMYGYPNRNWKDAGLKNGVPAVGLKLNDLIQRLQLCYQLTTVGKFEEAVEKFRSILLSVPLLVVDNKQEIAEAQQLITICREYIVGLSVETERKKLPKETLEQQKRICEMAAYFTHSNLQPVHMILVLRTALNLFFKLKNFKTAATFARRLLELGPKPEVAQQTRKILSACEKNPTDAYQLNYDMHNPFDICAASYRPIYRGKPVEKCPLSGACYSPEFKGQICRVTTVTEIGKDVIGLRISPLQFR
UniProt P62258: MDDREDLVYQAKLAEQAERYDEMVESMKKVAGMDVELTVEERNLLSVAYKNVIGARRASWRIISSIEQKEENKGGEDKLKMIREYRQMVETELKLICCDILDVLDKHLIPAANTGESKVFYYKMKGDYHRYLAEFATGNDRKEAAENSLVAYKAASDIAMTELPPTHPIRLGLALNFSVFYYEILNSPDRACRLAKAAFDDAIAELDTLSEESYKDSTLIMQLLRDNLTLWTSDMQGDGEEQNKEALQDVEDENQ
UniProt P46459: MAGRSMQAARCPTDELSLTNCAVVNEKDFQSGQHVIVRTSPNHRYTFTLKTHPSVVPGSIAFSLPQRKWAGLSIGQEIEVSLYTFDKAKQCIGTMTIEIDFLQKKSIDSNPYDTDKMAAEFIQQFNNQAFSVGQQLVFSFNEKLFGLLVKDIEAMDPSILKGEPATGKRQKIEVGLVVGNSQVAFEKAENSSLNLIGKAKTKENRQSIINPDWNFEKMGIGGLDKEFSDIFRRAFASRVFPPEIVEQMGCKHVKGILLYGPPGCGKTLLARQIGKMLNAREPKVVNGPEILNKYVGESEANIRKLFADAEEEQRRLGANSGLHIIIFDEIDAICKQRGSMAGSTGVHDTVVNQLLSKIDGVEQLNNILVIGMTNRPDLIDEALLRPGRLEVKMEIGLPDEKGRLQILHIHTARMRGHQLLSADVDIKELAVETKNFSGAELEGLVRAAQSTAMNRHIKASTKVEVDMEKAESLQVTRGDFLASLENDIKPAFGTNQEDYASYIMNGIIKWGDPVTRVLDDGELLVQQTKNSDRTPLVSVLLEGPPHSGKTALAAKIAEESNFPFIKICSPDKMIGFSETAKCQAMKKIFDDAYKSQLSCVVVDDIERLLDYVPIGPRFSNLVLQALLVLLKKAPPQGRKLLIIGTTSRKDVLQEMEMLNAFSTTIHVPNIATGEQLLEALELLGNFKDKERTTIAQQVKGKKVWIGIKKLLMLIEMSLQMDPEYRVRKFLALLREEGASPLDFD
UniProt P27824, residues 21-592: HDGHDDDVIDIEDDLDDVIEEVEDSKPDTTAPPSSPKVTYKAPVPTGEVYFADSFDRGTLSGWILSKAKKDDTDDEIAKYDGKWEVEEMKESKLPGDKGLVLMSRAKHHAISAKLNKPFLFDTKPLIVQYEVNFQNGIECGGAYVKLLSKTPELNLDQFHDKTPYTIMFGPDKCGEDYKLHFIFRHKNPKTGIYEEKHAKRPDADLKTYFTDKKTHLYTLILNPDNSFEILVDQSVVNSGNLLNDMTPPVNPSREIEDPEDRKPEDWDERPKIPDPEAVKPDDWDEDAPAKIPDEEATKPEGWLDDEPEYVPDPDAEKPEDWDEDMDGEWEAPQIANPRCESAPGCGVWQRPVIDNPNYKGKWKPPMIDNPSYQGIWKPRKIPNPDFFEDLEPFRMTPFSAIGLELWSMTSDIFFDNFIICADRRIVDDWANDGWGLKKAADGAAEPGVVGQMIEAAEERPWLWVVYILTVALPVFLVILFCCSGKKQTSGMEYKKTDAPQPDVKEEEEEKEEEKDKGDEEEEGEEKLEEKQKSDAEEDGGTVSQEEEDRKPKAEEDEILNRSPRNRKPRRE
UniProt Q92538: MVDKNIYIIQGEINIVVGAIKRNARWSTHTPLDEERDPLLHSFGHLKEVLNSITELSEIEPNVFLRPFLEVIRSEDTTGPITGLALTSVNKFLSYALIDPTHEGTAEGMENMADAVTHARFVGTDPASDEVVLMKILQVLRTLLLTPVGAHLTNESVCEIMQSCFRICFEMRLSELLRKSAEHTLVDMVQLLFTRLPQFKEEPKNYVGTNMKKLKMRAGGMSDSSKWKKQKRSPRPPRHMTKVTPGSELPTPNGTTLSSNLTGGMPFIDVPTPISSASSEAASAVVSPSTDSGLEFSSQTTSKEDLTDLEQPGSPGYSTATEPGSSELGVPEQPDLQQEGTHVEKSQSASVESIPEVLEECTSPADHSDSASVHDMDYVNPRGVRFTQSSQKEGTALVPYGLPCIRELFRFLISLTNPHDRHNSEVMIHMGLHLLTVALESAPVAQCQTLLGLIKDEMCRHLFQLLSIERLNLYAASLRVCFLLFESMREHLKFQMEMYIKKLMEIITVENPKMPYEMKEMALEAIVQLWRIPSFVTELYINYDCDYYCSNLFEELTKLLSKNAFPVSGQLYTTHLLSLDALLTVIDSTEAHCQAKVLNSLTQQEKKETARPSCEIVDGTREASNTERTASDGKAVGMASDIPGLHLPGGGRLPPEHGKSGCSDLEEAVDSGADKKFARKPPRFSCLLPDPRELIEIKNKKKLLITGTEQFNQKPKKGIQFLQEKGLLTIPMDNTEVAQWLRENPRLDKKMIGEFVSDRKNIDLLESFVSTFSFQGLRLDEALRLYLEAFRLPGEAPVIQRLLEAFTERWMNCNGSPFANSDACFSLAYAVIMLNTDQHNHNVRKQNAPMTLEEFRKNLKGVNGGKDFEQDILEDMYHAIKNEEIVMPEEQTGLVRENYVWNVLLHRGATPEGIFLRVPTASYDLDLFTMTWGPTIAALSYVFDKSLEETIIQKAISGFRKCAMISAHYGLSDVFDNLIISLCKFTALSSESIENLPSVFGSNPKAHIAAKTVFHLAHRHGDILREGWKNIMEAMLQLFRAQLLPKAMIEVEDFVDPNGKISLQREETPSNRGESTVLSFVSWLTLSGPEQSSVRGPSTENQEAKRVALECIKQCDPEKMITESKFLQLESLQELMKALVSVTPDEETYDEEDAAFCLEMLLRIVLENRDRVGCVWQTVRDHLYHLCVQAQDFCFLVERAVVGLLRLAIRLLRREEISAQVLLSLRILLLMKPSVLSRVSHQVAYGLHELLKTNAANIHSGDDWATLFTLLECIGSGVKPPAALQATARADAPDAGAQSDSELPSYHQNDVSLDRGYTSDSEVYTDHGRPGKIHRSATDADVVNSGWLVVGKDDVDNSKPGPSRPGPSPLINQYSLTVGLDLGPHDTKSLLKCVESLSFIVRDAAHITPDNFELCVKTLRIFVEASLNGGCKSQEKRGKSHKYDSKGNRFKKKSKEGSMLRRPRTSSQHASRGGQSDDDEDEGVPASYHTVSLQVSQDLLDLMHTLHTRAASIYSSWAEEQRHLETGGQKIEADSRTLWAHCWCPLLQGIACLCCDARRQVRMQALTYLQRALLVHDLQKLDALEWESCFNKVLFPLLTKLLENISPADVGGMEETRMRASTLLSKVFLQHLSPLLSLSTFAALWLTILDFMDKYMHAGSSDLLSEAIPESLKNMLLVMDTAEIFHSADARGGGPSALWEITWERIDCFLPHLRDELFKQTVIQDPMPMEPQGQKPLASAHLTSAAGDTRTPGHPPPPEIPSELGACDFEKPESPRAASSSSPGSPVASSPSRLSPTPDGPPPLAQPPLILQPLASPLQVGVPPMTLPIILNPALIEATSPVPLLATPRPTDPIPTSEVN

Assays:
[1] = molecular target: T1, miR2_W538S (murine iRhom2 with W538S in iCERES), in HEK293 cells (mouse) (UniProt Q80WQ6); assay: affinity purification with mass spectrometry; anti-HA co-IP from HEK293 cells stably expressing wt iRhom2, miR2_W538S or GFP (control); beads washed three times with lysis buffer and three times without detergent, on-bead trypsin digest, label-free quantification; hit: p-value < 0.01 and > fourfold over GFP
T1 sequence: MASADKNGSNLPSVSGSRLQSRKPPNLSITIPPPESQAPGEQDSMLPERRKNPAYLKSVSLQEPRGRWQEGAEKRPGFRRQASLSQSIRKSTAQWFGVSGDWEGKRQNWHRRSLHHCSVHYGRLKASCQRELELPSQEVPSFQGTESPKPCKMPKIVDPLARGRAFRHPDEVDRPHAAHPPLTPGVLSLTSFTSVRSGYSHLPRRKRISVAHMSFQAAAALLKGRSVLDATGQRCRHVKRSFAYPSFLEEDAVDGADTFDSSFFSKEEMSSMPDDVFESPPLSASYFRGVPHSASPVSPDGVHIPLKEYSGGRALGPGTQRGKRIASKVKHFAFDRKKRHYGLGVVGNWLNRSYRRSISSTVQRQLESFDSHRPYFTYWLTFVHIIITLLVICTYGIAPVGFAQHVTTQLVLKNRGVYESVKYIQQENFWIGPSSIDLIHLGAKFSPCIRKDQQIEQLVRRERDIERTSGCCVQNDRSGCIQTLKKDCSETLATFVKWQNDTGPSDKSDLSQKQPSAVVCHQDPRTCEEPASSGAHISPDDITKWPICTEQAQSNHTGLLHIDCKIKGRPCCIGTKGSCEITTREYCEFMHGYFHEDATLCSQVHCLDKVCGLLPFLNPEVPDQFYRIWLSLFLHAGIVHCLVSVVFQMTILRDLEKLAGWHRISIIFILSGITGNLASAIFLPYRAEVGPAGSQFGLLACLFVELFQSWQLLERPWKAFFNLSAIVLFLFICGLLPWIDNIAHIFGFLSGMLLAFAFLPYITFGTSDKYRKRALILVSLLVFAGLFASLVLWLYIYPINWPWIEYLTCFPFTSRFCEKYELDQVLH

[2] = molecular target: T2, murine wt_iRhom2 (wild-type) construct with 3xHA tag, in HEK293 cells (mouse) (UniProt Q80WQ6); assay: as above
T2 sequence: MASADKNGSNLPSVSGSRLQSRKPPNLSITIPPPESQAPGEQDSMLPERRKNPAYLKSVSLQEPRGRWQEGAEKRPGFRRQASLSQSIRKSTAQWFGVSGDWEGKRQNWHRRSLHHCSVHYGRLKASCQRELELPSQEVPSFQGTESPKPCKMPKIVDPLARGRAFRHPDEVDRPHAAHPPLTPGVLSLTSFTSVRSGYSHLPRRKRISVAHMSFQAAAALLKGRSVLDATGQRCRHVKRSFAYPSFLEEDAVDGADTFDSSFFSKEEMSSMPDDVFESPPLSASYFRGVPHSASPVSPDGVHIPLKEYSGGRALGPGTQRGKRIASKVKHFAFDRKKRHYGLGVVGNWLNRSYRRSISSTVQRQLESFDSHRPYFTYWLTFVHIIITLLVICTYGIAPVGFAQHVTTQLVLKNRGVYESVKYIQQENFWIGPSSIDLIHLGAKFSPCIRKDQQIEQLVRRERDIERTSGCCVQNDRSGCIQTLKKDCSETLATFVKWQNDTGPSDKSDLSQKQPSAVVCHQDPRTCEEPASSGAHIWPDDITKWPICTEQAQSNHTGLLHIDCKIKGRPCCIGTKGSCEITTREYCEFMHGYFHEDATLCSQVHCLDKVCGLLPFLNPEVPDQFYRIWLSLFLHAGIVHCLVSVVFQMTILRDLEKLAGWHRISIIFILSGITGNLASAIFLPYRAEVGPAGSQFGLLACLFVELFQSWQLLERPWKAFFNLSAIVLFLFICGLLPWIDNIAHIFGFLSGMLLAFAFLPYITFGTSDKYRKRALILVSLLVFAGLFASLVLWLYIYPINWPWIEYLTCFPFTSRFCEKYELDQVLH

For “14-3-3 beta/alpha (YWHAB), endogenous in HEK293 cells (from UniProt P31946 1-246)”, which binding [1] is on record?
Its binding is “binds”.

And the binding [2]?
Its binding is “binds”.

What does the source list for “SEC22b, endogenous in HEK293 cells (from UniProt O75396 1-215)”?
binding [1]: binds; binding [2]: binds

What does the source list for “coatomer subunit COPA, endogenous in HEK293 cells (from UniProt P53621 1-1224)”?
binding [1]: binds; binding [2]: binds

Which results are given for “14-3-3 epsilon (YWHAE), endogenous in HEK293 cells (from UniProt P62258 1-255)”?
binding [1]: binds; binding [2]: binds

“NSF, endogenous in HEK293 cells (from UniProt P46459 1-744)” was tested. Which binding [1] did it give?
The binding was “no binding”.

And the binding [2]?
Its binding is “binds”.

For “calnexin, endogenous in HEK293 cells (from UniProt P27824 21-592)”, which binding [2] is on record?
The binding was “binds”.

“GBF1, endogenous in HEK293 cells (from UniProt Q92538 1-1860)” was tested. Which binding [1] did it give?
Its binding is “no binding”.

And the binding [2]?
Its binding is “binds”.

B1: FRMD8, endogenous in HEK293 cells (protein, UniProt Q9BZ67 1-464)
chain: MDGTEGSAGQPGPAERSHRSSVSSVGARAADVLVYLADDTVVPLAVENLPSLSAHELHRAVREVLQLPDIALDVFALWLVSPLLEVQLKPKHQPYKLGRQWPELLLRFTSAPDDDVAMDEPFLQFRRNVFFPKRRELQIHDEEVLRLLYEEAKGNVLAARYPCDVEDCEALGALVCRVQLGPYQPGRPAACDLREKLDSFLPAHLCKRGQSLFAALRGRGARAGPGEQGLLNAYRQVQEVSSDGGCEAALGTHYRAYLLKCHELPFYGCAFFHGEVDKPAQGFLHRGGRKPVSVAISLEGVHVIDSREKHVLLGLRFQELSWDHTSPEEEEPILWLEFDGDSEGTPVNKLLKIYSKQAELMSSLIEYCIELSQAAEPAGPQDSATGSPSDPSSSLAPVQRPKLRRQGSVVSSRIQHLSTIDYVEDGKGIRRVKPKRTTSFFSRQLSLGQGSYTVVQPGDSLEQG
B1 was tested. Which binding [1] did it give?
The binding was “binds”.

What about the binding [2] of the same molecule?
The binding was “binds”.

B2: YWHAQ (printed as 14-3-3 zeta), endogenous in HEK293 cells (protein, UniProt P27348 1-245)
chain: MEKTELIQKAKLAEQAERYDDMATCMKAVTEQGAELSNEERNLLSVAYKNVVGGRRSAWRVISSIEQKTDTSDKKLQLIKDYREKVESELRSICTTVLELLDKYLIANATNPESKVFYLKMKGDYFRYLAEVACGDDRKQTIDNSQGAYQEAFDISKKEMQPTHPIRLGLALNFSVFYYEILNNPELACTLAKTAFDEAIAELDTLNEDSYKDSTLIMQLLRDNLTLWTSDSAGEECDAAEGAEN
With B2 as the molecule, how does the binding [1] read?
The binding was “binds”.

What about the binding [2] of the same molecule?
Its binding is “binds”.

B3: GOSR1, endogenous in HEK293 cells (protein, UniProt O95249 1-250)
chain: MAAGTSSYWEDLRKQARQLENELDLKLVSFSKLCTSYSHSSTRDGRRDRYSSDTTPLLNGSSQDRMFETMAIEIEQLLARLTGVNDKMAEYTNSAGVPSLNAALMHTLQRHRDILQDYTHEFHKTKANFMAIRERENLMGSVRKDIESYKSGSGVNNRRTELFLKEHDHLRNSDRLIEETISIAMATKENMTSQRGMLKSIHSKMNTLANRFPAVNSLIQRINLRKRRDSLILGGVIGICTILLLLYAFH
B3 was tested. Which binding [1] did it give?
The binding was “no binding”.

And the binding [2]?
The binding was “binds”.

B4: syntaxin 6 (STX6), endogenous in HEK293 cells (protein, UniProt O43752 1-255)
chain: MSMEDPFFVVKGEVQKAVNTAQGLFQRWTELLQDPSTATREEIDWTTNELRNNLRSIEWDLEDLDETISIVEANPRKFNLDATELSIRKAFITSTRQVVRDMKDQMSTSSVQALAERKNRQALLGDSGSQNWSTGTTDKYGRLDRELQRANSHFIEEQQAQQQLIVEQQDEQLELVSGSIGVLKNMSQRIGGELEEQAVMLEDFSHELESTQSRLDNVMKKLAKVSHMTSDRRQWCAIAILFAVLLVVLILFLVL
With B4 as the molecule, how does the binding [2] read?
Its binding is “binds”.

B5: syntaxin 7 (STX7), endogenous in HEK293 cells (protein, UniProt O15400 1-261)
chain: MSYTPGVGGDPAQLAQRISSNIQKITQCSVEIQRTLNQLGTPQDSPELRQQLQQKQQYTNQLAKETDKYIKEFGSLPTTPSEQRQRKIQKDRLVAEFTTSLTNFQKVQRQAAEREKEFVARVRASSRVSGSFPEDSSKERNLVSWESQTQPQVQVQDEEITEDDLRLIHERESSIRQLEADIMDINEIFKDLGMMIHEQGDVIDSIEANVENAEVHVQQANQQLSRAADYQRKSRKTLCIIILILVIGVAIISLIIWGLNH
With B5 as the molecule, how does the binding [2] read?
The binding was “binds”.
